This note sets out measurements from paper PMC9912109.

By UniProt entry, the sequences of proteins in these tests, tags left out. Where a name states a change or a piece, a line headed by the entry shows the natural chain unless it says otherwise.
UniProt C4M7U2: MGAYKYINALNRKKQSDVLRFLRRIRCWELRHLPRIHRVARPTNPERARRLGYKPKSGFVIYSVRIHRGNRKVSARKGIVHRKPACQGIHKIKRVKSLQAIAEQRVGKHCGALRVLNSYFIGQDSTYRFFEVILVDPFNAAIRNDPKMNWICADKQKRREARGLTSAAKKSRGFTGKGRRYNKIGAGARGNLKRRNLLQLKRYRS
UniProt C4M549: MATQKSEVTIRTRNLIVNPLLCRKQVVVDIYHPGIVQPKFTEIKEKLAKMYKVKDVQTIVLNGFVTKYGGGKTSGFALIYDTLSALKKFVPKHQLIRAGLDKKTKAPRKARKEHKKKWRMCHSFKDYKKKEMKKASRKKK
UniProt C4M2T6: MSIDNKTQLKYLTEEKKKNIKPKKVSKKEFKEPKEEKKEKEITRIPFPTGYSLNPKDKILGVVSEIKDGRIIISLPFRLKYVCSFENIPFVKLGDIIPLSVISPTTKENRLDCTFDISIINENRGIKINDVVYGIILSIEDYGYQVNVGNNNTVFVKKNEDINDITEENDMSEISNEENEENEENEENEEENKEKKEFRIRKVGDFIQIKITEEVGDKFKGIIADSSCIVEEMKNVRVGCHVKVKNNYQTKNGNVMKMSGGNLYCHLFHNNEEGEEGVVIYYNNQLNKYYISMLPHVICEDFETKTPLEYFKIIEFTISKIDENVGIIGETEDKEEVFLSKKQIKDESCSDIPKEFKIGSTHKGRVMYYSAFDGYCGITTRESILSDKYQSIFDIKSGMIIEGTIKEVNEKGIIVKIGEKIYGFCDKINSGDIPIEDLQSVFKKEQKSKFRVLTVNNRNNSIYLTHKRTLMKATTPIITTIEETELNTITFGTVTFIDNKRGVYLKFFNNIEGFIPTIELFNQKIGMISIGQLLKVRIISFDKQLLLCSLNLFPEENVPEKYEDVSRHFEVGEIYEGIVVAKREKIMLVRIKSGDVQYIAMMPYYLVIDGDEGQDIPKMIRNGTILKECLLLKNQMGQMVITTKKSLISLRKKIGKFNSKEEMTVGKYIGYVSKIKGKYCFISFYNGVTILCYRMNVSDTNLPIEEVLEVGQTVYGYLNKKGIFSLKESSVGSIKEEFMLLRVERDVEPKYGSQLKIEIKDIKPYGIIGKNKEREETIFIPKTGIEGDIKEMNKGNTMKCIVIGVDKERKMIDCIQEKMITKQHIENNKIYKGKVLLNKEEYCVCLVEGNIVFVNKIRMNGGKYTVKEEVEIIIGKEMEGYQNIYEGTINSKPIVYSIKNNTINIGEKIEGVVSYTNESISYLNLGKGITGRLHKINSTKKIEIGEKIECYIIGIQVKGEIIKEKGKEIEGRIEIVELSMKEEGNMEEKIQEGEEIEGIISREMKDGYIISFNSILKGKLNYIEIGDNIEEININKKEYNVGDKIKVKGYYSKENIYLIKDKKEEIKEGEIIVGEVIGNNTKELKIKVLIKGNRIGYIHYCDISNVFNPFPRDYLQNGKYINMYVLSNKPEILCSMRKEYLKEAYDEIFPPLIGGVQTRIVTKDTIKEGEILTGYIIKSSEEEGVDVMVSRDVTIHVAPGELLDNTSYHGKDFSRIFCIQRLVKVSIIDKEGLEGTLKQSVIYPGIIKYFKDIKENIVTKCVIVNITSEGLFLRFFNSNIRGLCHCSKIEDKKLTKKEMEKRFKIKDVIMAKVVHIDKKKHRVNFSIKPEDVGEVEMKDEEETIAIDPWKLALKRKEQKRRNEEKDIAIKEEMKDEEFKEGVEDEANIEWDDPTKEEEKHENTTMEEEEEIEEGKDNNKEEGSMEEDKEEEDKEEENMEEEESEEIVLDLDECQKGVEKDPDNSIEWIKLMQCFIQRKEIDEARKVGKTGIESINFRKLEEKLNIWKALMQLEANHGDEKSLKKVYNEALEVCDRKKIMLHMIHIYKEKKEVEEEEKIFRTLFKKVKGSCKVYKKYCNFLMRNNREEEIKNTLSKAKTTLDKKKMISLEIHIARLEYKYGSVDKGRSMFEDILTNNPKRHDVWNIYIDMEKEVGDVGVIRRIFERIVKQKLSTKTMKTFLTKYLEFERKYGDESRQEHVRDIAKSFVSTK
UniProt C4MAC9: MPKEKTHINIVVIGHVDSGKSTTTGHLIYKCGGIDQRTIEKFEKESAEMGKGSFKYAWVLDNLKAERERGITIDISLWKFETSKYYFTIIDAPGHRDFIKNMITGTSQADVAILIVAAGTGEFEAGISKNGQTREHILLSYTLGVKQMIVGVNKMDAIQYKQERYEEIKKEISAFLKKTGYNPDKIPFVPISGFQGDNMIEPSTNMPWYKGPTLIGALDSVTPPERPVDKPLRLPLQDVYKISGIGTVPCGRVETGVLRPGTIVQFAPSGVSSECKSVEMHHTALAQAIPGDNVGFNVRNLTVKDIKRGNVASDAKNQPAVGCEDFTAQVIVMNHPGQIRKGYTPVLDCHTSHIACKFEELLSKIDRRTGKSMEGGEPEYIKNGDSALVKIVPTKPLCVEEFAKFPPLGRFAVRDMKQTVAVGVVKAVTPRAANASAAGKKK
UniProt C4M7K9: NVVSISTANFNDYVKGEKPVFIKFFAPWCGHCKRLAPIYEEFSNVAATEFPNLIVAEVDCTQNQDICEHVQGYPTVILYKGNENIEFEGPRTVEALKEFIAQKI
UniProt C4LVR9: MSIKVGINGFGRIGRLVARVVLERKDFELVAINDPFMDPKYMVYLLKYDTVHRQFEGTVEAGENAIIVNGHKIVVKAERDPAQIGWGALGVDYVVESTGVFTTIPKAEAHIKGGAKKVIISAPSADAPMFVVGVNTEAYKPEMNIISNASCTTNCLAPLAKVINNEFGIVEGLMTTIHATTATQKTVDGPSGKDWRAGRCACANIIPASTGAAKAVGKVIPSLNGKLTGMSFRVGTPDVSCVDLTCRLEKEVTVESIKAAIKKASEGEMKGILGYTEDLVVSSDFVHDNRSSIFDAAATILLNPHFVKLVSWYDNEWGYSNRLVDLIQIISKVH

No constants are given. Whether binding was seen depends on the method and setting. In cells and extracts the contact can be indirect. A yes stands for co-enrichment or nearness to the bait. Other partners may have been found. Sequences can lack the tags named with a protein.

The labels stand for the following.
T1: EhCFIm25 (Entamoeba histolytica (endogenous in trophozoites, strain HM1:IMSS)) (UniProt C4M2T1)
T1 sequence: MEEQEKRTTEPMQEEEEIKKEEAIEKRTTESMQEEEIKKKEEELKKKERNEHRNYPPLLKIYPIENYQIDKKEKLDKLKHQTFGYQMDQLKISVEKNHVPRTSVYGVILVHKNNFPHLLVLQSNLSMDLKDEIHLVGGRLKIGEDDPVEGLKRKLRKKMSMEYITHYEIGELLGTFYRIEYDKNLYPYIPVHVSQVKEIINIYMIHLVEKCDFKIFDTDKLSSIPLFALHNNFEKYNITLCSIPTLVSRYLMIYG

B1: NEDD4-binding protein 2 (protein, UniProt C4M2C9 1-261)
chain: MGLLFIIIISILAYLGYLIYKKELTWPIEDSIIYKKVLVMIEQANAIIKEKQKHLKTDEITSPKTEKTQKEIKTKSDDNVVHVPKPKGDEPVIEDRPNGKKEVVSGDKSILIDRIKSKHFDPVDQKFNEATQLREKYIKAKDAKSPEKNELFEKYEATRKEAEEMKKKATIAIFEEVNIYMVDEDAIDLHGLQIDGALDMVKDQINKRKAAGKSIVKVQCGMGHHNTVGFSKIKEAVVKYCQDEKLSFTEDKDHGFVNISL
B2: Peroxiredoxin (protein, UniProt C4M3Q0 1-233)
chain: MSCNQQKECCKKECQEKECCKECCCPRIKAFKKFINTFEKAQIGKEAPEFKAPAYCPCGSIKEIDINEYRGKYVVLLFYPLDWTFVCPTEMIGYSELAGQLKEIDCEVIGVSVDSVYCHQAWCEADKSKGGVGKLTFPLVSDIKRCISIKYGMLNVEAGIARRGYVIIDDKGKVRYIQMNDDGIGRSTEETIRIVKAIQFSDEHGAVCPLNWKPGKDTIEPTPDGIKKYLTAH
B3: WD repeat protein (protein, UniProt C4M3H5 1-341)
chain: MTQQEDTILCISINEQKSYIGIGTINGFYIFDINNPSKAIFHESIGGVGLIELKGESQYLLLVGGGPNPFESPTVACLYDLNNHQFVPSNKYSYARAIRRIRMTKKDTFIALENNIDVYCEGKVSTTFDTYDNPNGLFSVNYNSRKFAYPSITEGTITIHDLDNKTDVAVISAHEHSIYTLSPSFDSTIVTVSENGTLVRIWETTSGTLLKEFRRGMNPAHVYCVALSDDGKLVALHSENGTIHVFSLTEDIKNQIGWVAKGIGSIKWWFGVENNVSDYASLIIHDILPKTQTELYFLQSEYYKIGLFGLNGKYYESQLSLENQQLVDDKSAEIQTIQLNE

The target in one assay is T1, EhCFIm25 (Entamoeba histolytica (endogenous in trophozoites, strain HM1:IMSS)). The assay is described as follows: affinity purification with mass spectrometry; CLIP: trophozoites UV-irradiated (254 nm, 30 min, 4°C); precleared nuclear extract (100 µg) incubated 2 h at 37°C with Dynabeads protein A/G coupled to anti-EhCFIm25 polyclonal antibody (made by the authors); washes with 20 mM Tris pH 7.5, 0.5 M NaCl, 0.05% Tween 20; elution 0.1 M glycine pH 2.0; eight IPs pooled, LC-ESI-HDMSE, only proteins found in both MS replicates.
For “60S ribosomal protein L15 (from UniProt C4M7U2)”, the binding result was “binds”.
Still for that read-out and setting: next, “Ribosomal protein S24_ putative (from UniProt C4M549)”: “binds”; “S1 RNA binding domain-containing protein (from UniProt C4M2T6 1-1710)”: “binds”.
For the molecule “Elongation factor 1-alpha 1 (from UniProt C4MAC9 1-442)”, the binding entry is given as “binds”.
Same read-out and setting: next, B1: “binds”.

A further assay has the same target. The assay is described as follows: affinity purification with mass spectrometry; CLIP: trophozoites UV-irradiated (254 nm, 30 min, 4°C); precleared nuclear extract (100 µg) incubated 2 h at 37°C with Dynabeads protein A/G coupled to anti-HsCFIm25 polyclonal antibody (GeneTex GTX115535); washes with 20 mM Tris pH 7.5, 0.5 M NaCl, 0.05% Tween 20; elution 0.1 M glycine pH 2.0; eight IPs pooled, LC-ESI-HDMSE, only proteins found in both MS replicates.
In the case of “Thioredoxin_ putative (from UniProt C4M7K9)”, the binding result is listed as “binds”.
As for “Glyceraldehyde-3- phosphate dehydrogenase (from UniProt C4LVR9)”, the binding result is recorded as “binds”.
On the same count and under the same terms, the same measure for B2: “binds”; for B3: “binds”.
